Measured values taken from the supplement of paper PMC10849652.
The list shows a part of the results.

Protein sequences, listed by entry. Tags and fused reporters are not part of them. Lines headed by an entry give the natural chain unless they say otherwise; changes in a name come on top.
UniProt Q8IYL3: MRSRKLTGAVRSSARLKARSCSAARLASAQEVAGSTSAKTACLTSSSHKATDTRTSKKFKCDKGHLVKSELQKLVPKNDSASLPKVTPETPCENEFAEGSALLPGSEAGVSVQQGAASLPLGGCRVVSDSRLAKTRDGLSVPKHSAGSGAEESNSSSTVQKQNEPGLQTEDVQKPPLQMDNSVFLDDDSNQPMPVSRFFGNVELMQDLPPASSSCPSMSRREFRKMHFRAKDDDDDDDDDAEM
UniProt Q9NS00: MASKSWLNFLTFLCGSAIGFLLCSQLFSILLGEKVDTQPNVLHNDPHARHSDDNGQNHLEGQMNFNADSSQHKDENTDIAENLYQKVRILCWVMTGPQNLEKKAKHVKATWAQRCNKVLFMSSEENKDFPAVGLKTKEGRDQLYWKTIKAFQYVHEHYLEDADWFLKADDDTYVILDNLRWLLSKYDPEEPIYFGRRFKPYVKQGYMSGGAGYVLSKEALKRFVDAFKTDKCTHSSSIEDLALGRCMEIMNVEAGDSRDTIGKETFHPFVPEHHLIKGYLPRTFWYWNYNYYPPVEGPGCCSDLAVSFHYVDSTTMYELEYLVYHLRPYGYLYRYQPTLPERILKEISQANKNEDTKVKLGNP
UniProt P04632: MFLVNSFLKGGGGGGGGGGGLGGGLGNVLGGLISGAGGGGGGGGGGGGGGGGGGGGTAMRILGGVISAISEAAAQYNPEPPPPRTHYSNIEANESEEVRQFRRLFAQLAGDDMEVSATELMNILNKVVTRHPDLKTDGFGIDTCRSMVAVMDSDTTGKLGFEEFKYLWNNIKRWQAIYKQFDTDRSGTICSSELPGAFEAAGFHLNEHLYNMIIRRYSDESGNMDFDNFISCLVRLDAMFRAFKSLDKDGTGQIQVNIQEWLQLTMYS
UniProt Q9Y2V2: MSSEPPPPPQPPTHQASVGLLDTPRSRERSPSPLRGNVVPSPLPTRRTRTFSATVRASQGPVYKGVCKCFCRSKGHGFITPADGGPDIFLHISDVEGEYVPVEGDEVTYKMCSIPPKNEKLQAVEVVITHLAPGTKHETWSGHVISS
UniProt Q14444, whole entry, looked up: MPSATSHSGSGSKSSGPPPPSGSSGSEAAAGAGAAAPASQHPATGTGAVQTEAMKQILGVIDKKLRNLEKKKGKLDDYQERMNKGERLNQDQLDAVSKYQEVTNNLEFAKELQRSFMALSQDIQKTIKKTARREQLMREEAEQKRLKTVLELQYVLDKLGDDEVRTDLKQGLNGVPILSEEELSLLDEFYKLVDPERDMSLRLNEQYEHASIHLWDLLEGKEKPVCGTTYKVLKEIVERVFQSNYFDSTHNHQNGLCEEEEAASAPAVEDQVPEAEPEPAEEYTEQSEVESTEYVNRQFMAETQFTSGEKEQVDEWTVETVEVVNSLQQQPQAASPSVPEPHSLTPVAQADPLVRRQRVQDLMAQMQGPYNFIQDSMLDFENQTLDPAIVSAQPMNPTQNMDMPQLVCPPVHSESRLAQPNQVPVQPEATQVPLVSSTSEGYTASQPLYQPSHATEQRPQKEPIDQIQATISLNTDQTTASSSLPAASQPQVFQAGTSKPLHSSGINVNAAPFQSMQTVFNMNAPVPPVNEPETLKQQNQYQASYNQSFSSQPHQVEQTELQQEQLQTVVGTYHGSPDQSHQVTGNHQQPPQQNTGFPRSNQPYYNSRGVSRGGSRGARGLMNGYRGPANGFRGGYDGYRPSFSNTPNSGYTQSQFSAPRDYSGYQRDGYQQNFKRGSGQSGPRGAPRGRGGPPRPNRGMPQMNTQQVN
UniProt Q6ZSJ8: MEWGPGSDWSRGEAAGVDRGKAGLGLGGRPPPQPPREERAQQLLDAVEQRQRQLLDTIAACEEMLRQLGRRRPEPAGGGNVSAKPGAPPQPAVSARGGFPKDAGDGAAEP
UniProt Q8WUR7: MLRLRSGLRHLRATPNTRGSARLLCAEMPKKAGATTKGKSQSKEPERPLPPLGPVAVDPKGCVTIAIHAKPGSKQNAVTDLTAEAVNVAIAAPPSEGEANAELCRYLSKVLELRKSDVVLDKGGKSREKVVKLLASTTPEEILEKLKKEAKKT
UniProt Q8N1A6: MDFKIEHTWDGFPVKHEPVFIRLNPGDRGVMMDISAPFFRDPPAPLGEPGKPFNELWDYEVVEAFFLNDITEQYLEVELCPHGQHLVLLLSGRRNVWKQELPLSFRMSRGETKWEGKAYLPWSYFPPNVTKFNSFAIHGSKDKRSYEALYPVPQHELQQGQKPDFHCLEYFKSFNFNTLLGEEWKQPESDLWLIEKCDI
UniProt O43852: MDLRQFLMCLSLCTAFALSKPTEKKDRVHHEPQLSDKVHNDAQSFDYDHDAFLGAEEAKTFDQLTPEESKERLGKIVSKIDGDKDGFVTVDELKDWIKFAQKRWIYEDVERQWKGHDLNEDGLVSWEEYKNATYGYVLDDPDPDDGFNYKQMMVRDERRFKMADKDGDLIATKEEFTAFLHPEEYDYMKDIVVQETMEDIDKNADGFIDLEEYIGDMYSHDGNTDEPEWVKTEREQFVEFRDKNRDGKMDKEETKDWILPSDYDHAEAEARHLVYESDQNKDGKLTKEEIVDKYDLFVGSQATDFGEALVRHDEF
UniProt Q9BSJ5: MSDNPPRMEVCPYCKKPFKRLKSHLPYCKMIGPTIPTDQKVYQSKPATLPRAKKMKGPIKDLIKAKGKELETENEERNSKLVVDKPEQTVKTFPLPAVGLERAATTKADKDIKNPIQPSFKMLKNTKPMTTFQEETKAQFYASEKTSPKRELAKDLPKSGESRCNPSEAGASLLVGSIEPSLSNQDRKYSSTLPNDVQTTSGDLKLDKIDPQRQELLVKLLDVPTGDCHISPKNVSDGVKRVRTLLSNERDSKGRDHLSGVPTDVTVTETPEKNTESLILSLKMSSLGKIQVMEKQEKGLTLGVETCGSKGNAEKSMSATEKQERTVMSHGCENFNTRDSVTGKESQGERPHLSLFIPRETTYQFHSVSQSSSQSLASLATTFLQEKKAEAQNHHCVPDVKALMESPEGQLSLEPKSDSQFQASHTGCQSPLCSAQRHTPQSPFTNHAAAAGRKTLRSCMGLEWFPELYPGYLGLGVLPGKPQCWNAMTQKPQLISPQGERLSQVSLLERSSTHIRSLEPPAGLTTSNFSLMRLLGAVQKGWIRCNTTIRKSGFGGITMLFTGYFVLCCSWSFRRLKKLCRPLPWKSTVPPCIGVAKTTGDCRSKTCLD
UniProt P43251: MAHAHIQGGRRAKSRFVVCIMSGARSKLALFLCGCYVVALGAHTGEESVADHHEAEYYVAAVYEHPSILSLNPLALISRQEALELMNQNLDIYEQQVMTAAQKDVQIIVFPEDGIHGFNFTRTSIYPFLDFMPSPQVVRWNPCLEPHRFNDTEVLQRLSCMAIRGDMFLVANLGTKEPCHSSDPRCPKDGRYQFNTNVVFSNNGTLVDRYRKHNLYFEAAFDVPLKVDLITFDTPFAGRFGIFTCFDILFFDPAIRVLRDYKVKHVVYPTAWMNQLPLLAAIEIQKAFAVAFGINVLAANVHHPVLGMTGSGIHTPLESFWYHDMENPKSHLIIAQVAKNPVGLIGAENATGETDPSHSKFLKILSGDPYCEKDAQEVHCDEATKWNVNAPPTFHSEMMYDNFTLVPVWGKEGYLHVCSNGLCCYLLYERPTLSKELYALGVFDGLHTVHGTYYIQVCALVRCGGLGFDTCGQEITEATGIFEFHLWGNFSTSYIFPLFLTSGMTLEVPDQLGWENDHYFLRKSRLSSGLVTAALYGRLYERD
UniProt P47756, whole entry, looked up: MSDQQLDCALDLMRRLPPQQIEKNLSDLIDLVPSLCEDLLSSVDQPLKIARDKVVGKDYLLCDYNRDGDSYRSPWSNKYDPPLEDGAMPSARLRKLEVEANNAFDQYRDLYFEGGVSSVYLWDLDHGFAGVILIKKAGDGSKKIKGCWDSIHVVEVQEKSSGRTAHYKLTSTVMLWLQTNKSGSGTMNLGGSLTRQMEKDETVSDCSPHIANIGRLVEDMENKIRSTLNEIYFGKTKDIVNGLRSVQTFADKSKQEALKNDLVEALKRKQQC
UniProt Q86YS7: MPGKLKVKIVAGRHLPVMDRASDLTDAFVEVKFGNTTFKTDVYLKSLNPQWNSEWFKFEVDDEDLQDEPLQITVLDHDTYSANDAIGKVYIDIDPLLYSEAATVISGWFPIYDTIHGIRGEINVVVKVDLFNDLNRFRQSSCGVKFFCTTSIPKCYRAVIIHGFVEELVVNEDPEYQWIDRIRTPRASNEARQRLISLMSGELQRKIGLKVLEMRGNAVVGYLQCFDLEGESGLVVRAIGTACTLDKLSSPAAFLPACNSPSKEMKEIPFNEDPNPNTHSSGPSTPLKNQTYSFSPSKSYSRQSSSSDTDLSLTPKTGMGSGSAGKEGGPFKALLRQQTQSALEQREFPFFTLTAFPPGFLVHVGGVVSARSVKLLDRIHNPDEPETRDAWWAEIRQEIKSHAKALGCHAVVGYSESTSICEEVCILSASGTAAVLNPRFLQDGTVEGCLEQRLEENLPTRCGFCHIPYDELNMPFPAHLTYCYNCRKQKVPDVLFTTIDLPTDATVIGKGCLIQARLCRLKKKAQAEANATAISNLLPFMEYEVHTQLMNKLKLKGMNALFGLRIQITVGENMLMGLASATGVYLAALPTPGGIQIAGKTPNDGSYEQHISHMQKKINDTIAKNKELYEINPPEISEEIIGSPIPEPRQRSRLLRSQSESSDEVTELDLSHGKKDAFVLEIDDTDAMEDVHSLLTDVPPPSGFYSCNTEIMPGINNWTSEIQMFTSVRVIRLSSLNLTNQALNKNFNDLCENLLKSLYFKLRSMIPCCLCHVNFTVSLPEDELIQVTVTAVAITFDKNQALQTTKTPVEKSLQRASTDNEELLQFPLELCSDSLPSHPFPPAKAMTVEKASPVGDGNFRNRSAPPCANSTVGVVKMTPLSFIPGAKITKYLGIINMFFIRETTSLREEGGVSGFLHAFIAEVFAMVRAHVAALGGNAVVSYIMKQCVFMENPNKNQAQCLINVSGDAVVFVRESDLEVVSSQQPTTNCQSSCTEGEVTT
UniProt Q9HB71, whole entry, looked up: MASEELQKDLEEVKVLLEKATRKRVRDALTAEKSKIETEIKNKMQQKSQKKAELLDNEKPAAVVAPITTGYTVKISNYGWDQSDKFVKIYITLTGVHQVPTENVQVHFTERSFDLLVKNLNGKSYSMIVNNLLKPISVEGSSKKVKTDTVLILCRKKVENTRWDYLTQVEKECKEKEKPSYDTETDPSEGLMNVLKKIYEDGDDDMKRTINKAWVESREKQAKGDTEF
UniProt P05937: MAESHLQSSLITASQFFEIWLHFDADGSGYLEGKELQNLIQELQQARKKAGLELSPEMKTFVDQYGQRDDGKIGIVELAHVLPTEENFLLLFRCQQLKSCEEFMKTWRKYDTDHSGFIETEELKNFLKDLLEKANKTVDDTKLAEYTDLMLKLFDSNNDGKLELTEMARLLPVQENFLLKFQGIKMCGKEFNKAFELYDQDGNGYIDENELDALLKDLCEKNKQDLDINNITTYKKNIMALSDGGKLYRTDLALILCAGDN
UniProt Q9NZ63: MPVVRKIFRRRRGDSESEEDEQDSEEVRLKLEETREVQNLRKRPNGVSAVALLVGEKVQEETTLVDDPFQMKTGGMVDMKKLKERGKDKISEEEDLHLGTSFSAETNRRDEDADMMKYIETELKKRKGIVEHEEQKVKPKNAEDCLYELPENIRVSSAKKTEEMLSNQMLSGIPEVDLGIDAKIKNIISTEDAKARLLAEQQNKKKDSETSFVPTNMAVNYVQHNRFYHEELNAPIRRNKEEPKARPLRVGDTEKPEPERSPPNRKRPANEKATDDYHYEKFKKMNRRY
UniProt Q8IXQ3: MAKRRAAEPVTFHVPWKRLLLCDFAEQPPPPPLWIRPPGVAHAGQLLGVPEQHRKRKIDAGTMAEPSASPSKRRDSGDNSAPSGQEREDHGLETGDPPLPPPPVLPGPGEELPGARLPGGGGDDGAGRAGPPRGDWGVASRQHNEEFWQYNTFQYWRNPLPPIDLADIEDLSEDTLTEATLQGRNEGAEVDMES
UniProt P40121: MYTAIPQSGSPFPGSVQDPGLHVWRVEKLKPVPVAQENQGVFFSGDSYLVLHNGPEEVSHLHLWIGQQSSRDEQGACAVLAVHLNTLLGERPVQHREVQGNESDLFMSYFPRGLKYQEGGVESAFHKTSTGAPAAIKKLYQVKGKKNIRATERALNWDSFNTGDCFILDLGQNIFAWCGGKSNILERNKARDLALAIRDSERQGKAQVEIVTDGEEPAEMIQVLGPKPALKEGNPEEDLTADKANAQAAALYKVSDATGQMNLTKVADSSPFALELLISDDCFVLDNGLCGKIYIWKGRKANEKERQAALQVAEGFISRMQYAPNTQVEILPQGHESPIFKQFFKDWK
UniProt O95873: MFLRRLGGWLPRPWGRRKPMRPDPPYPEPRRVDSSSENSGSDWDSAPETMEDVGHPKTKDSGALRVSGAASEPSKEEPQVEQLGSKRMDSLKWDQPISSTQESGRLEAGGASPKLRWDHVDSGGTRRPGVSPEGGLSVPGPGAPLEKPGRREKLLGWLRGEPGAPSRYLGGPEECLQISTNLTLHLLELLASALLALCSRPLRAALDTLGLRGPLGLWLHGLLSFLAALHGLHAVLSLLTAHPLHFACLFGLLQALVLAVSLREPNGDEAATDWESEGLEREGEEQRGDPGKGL

Assays:
Test in all cases: log2 fold change, soluble protein after heating vs DMSO (PISA); higher = thermal stabilisation; K562 cells, 10 uM, 30 min; active = over 0.2 and 3.5 SD of the protein, either way, in both replicates (recomputed)
[1] = compound: CC1=C(C=C(C=C1)NC(=O)C2=CC(=CC=C2)C(C)(C)C#N)NC3=CC4=C(C=C3)N=CN(C4=O)C
Procedure, shortened: (§1)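 Soluble protein was defined as the supernatant after 21,000xg for 90 min. It came from K562 cells at 2×10^6 cells/mL given 10 μM compound for 30 min, heated in aliquots for 3 min across 48°C-58°C, pooled, and extracted in PBS with 0.5% NP-40 at 4°C, and was quantified by TMTpro 16plex LC-MS/MS with equalised channel sums. Thermal stability against control samples, from duplicates, is reported as log2 fold change.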

[2] = compound: CC1=C(C=C(C=C1)NC(=O)C2=CC(=CC=C2)N(C)C)NC(=O)C3=CC=C(C=C3)O
Procedure, shortened: as §1

[3] = compound: CC1=CC=C(C=C1)SC2=C3C=C(SC3=CN=C2)C(=O)N
Procedure, shortened: as §1

[4] = compound: CC1=NC(=CC=C1)C2=C(N=C(N2)C(C)(C)C)C3=CC4=NC=CN=C4C=C3
Procedure, shortened: as §1

Nexturastat A = compound: CCCCN(Cc1ccc(C(=O)NO)cc1)C(=O)Nc1ccccc1 [Nexturastat A]
Procedure, shortened: as §1

vemurafenib = compound: CCCS(=O)(=O)Nc1ccc(F)c(C(=O)c2c[nH]c3ncc(-c4ccc(Cl)cc4)cc23)c1F [vemurafenib]
Procedure, shortened: as §1

[5] = compound: CCCS(=O)(=O)Nc1ccc(F)c(C(=O)c2c[nH]c3ncc(Cl)cc23)c1F
Procedure, shortened: as §1

[6] = compound: CCCc1cc(C)[nH]c(=O)c1CNC(=O)c1cc(-c2ccnc(N3CCN(C)CC3)c2)cc2c1cnn2C(C)C
Procedure, shortened: as §1

givinostat = compound: CCN(CC)Cc1ccc2cc(COC(=O)Nc3ccc(C(=O)NO)cc3)ccc2c1 [givinostat]
Procedure, shortened: as §1

barasertib = compound: CCN(CCCOc1ccc2c(Nc3cc(CC(=O)Nc4cccc(F)c4)[nH]n3)ncnc2c1)CCOP(=O)(O)O [barasertib]
Procedure, shortened: as §1

Measured: log2 fold change

C1orf174 (UniProt Q8IYL3)
inactive: [1] -0.034 | [2] 0.037 | [3] -0.047 | [4] 0.051 | Nexturastat A 0.067 | vemurafenib 0.01 | [5] -0.03 | [6] -0.073 | givinostat -0.057 | barasertib 0.008

CAND2 (UniProt O75155)
inactive: [1] -0.028 | [2] 0.001 | [3] -0.054 | [4] -0.037 | Nexturastat A -0.057 | vemurafenib -0.023 | [5] -0.012 | [6] -0.021 | givinostat 0.002 | barasertib 0.013

CAD (UniProt P27708)
inactive: [1] -0.047 | [2] -0.009 | [3] 0.027 | [4] 0.012 | Nexturastat A 0 | vemurafenib -0.041 | [5] -0.018 | [6] -0.078 | givinostat 0.008 | barasertib 0.002

CALM2 (UniProt P0DP24)
inactive: [1] 0.015 | [2] -0.003 | [3] 0.015 | [4] 0.046 | Nexturastat A -0.01 | vemurafenib -0.001 | [5] -0.069 | [6] 0.026 | givinostat -0.02 | barasertib -0.014

C1GALT1 (UniProt Q9NS00)
inactive: [1] -0.016 | [2] 0.015 | [3] -0.014 | [4] -0.062 | Nexturastat A -0.058 | vemurafenib -0.014 | [5] -0.031 | [6] -0.095 | givinostat -0.006 | barasertib 0.054

BUD31 (UniProt P41223)
inactive: [1] 0.034 | [2] -0.011 | [3] 0.002 | [4] 0.012 | Nexturastat A -0.003 | vemurafenib -0.048 | [5] -0.018 | [6] 0.137 | givinostat -0.137 | barasertib 0

CALR (UniProt P27797)
inactive: [1] 0.02 | [2] 0.005 | [3] -0.052 | [4] -0.029 | Nexturastat A 0.013 | vemurafenib -0.03 | [5] -0.062 | [6] 0.125 | givinostat -0.028 | barasertib 0.02

C2orf69 (UniProt Q8N8R5)
inactive: [1] 0.012 | [2] -0.004 | [3] 0.018 | [4] 0.051 | Nexturastat A -0.077 | vemurafenib -0.001 | [5] -0.015 | [6] 0.09 | givinostat -0.08 | barasertib 0.07

CAPNS1 (UniProt P04632)
inactive: [1] 0.012 | [2] 0.001 | [3] 0.016 | [4] -0.014 | Nexturastat A -0.063 | vemurafenib -0.018 | [5] -0.001 | [6] -0.02 | givinostat -0.051 | barasertib -0.003

CARHSP1 (UniProt Q9Y2V2)
inactive: [1] 0.061 | [2] -0.047 | [3] 0.027 | [4] 0.002 | Nexturastat A -0.074 | vemurafenib -0.004 | [5] 0.023 | [6] -0.017 | givinostat -0.008 | barasertib 0.003

CAPRIN1 (UniProt Q14444)
inactive: [1] 0.059 | [2] 0.017 | [3] -0.062 | [4] 0 | Nexturastat A 0.183 | vemurafenib -0.055 | [5] -0.059 | [6] 0.094 | givinostat -0.035 | barasertib -0.167

C12orf29 (UniProt Q8N999)
inactive: [1] -0.02 | [2] -0.045 | [3] 0.041 | [4] 0.005 | Nexturastat A -0.03 | vemurafenib -0.024 | [5] 0.044 | [6] -0.007 | givinostat -0.076 | barasertib 0.011

C1orf122 (UniProt Q6ZSJ8)
inactive: [1] 0.035 | [2] -0.162 | [3] -0.053 | [4] -0.021 | Nexturastat A 0.057 | vemurafenib 0.004 | [5] -0.06 | [6] -0.05 | givinostat 0.089 | barasertib 0.023

C9orf72 (UniProt Q96LT7)
inactive: [1] 0.108 | [2] -0.009 | [3] 0.027 | [4] -0.014 | Nexturastat A -0.102 | vemurafenib -0.139 | [5] -0.038 | [6] 0.007 | givinostat -0.022 | barasertib 0.042

Copied from the results shown (two entries):
CAPRIN1 (UniProt Q14444)
inactive: [1] 0.059 | [2] 0.017 | [3] -0.062 | [4] 0 | Nexturastat A 0.183 | vemurafenib -0.055 | [5] -0.059 | [6] 0.094 | givinostat -0.035 | barasertib -0.167

C12orf29 (UniProt Q8N999)
inactive: [1] -0.02 | [2] -0.045 | [3] 0.041 | [4] 0.005 | Nexturastat A -0.03 | vemurafenib -0.024 | [5] 0.044 | [6] -0.007 | givinostat -0.076 | barasertib 0.011

Carrying on.

C15orf40 (UniProt Q8WUR7)
inactive: [1] -0.067 | [2] 0 | [3] -0.048 | [4] -0.034 | Nexturastat A 0.011 | vemurafenib -0.042 | [5] -0.064 | [6] -0.041 | givinostat -0.003 | barasertib 0.003

C4orf33 (UniProt Q8N1A6)
inactive: [1] -0.101 | [2] 0.04 | [3] 0.049 | [4] -0.049 | Nexturastat A 0.018 | vemurafenib -0.01 | [5] -0.082 | [6] 0.07 | givinostat 0.055 | barasertib 0.03

CALU isoform 3 (UniProt O43852)
inactive: [1] -0.023 | [2] 0.016 | [3] -0.013 | [4] -0.01 | Nexturastat A -0.053 | vemurafenib -0.008 | [5] -0.035 | [6] -0.005 | givinostat -0.007 | barasertib -0.014

C17orf80 (UniProt Q9BSJ5)
inactive: [1] 0.017 | [2] -0.008 | [3] 0.015 | [4] -0.013 | Nexturastat A 0.122 | vemurafenib -0.028 | [5] -0.03 | [6] -0.06 | givinostat -0.01 | barasertib 0.017

BTD isoform 3 (UniProt P43251)
inactive: [1] 0.02 | [2] 0.071 | [3] -0.04 | [4] -0.02 | Nexturastat A 0.005 | vemurafenib -0.085 | [5] -0.052 | [6] -0.07 | givinostat -0.061 | barasertib 0.01

CAPZB isoform 2 (UniProt P47756)
inactive: [1] -0.038 | [2] -0.035 | [3] -0.052 | [4] 0.015 | Nexturastat A -0.068 | vemurafenib -0.053 | [5] -0.047 | [6] 0.056 | givinostat -0.027 | barasertib 0.057

C2CD5 isoform 4 (UniProt Q86YS7)
inactive: [1] -0.09 | [2] -0.035 | [3] 0.004 | [4] 0.037 | Nexturastat A 0.043 | vemurafenib -0.024 | [5] -0.017 | [6] -0.016 | givinostat 0.182 | barasertib 0.073

BYSL (UniProt Q13895)
inactive: [1] 0.04 | [2] -0.042 | [3] -0.01 | [4] 0.016 | Nexturastat A 0.14 | vemurafenib 0.079 | [5] 0.032 | [6] -0.024 | givinostat 0.167 | barasertib 0.014

CACYBP (UniProt Q9HB71)
inactive: [1] 0.018 | [2] -0.002 | [3] -0.01 | [4] 0.021 | Nexturastat A -0.041 | vemurafenib -0.006 | [5] -0.042 | [6] 0.008 | givinostat -0.001 | barasertib 0.013

CALB1 (UniProt P05937)
inactive: [1] -0.004 | [2] 0.032 | [3] 0.027 | [4] 0.042 | Nexturastat A -0.023 | vemurafenib 0.057 | [5] 0.019 | [6] 0.011 | givinostat -0.031 | barasertib 0.037

C9orf78 (UniProt Q9NZ63)
inactive: [1] -0.005 | [2] 0.026 | [3] 0.008 | [4] 0.023 | Nexturastat A -0.026 | vemurafenib -0.016 | [5] -0.003 | [6] -0.026 | givinostat -0.037 | barasertib 0.008

C9orf40 (UniProt Q8IXQ3)
inactive: [1] 0.016 | [2] 0.019 | [3] 0.01 | [4] 0.058 | Nexturastat A 0.04 | vemurafenib 0.084 | [5] -0.01 | [6] 0 | givinostat 0.008 | barasertib 0.045

CAPG (UniProt P40121)
inactive: [1] 0.079 | [2] -0.022 | [3] 0.003 | [4] 0.038 | Nexturastat A -0.021 | vemurafenib 0.042 | [5] 0.047 | [6] -0.01 | givinostat 0.024 | barasertib 0.058

BZW2 (UniProt Q9Y6E2)
inactive: [1] 0.009 | [2] -0.007 | [3] 0.043 | [4] 0.062 | Nexturastat A -0.034 | vemurafenib 0.012 | [5] 0.058 | [6] -0.025 | givinostat 0.011 | barasertib 0.044

CAPZB (UniProt P47756)
inactive: [1] 0.033 | [2] 0.037 | [3] 0.009 | [4] 0.013 | Nexturastat A -0.081 | vemurafenib -0.014 | [5] -0.01 | [6] -0.001 | givinostat -0.025 | barasertib 0.005

C6orf47 (UniProt O95873)
inactive: [1] 0 | [2] 0.003 | [3] -0.042 | [4] 0.001 | Nexturastat A -0.108 | vemurafenib -0.053 | [5] -0.019 | [6] -0.208 | givinostat -0.025 | barasertib 0.013
